Measured values: paper PMC2861598, “Ligand Binding and Crystal Structures of the Substrate-Binding Domain of the ABC Transporter OpuA” (PLoS ONE, 2010)
Results are given in words; binding and its absence hold for the method and conditions named.

Molecular target: OpuAC, the substrate-binding domain (SBD) of the ABC transporter OpuA from Lactococcus lactis, produced as soluble protein (Lactococcus lactis) (UniProt Q9KIF6)
Test: SEC-MALS; 200 µl of OpuAC (0.2–0.4 mg/ml) on Superdex 200 10/300GL in 150 mM KPi pH 7.0, with or without 1 mM glycine betaine, room temperature; UV, refractive index and static light scattering detectors; both purified

binding: no binding (tested: 0.2–0.4 mg/ml)
B1: OpuAC, the substrate-binding domain (SBD) of the ABC transporter OpuA from Lactococcus lactis, produced as soluble protein (domain or fragment, UniProt Q9KIF6 320-573)
chain: DKKVDLVYMNWDSEVASINVLTQAMKEHGFDVKTTALDNAVAWQTVANGQADGMVSAWLPNTHKTQWQKYGKSVDLLGPNLKGAKVGFVVPSYMNVNSIEDLTNQANKTITGIEPGAGVMAASEKTLNSYDNLKDWKLVPSSSGAMTVALGEAIKQHKDIVITGWSPHWMFNKYDLKYLADPKGTMGTSENINTIVRKGLKKENPEAYKVLDKFNWTTKDMEAVMLDIQNGKTPEEAAKNWIKDHQKEVDKWFK
